Laboratory results: patent US20240132622A1 (Bristol-Myers Squibb, published 2024)
Results are given in words; binding and its absence hold for the method and conditions named. Some binding calls cover weakened binding; strength is not graded here.

Amino acid sequences for entries named in this document (tags omitted).
UniProt Q9UM07: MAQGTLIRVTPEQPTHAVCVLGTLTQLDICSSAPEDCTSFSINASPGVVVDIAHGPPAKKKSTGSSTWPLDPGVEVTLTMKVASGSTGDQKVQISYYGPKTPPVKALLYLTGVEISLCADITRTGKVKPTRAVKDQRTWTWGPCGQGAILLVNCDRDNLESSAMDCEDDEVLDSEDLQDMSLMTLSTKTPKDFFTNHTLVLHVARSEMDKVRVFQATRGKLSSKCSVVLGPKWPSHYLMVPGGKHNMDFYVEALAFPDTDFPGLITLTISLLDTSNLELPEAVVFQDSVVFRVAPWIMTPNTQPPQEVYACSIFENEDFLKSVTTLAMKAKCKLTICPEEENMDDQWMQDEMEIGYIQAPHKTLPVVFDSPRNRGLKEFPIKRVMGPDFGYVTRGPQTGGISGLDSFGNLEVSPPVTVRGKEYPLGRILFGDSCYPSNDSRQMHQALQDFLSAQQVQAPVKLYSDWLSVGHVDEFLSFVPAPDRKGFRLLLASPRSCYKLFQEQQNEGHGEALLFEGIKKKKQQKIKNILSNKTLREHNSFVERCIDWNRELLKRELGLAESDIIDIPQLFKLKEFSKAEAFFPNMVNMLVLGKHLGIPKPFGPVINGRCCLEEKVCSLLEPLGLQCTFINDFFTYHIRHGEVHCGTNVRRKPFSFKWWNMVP

What was measured:
[1] = molecular target: recombinant human PAD4 (human) (UniProt Q9UM07); assay: SPR at pH 7.6; PAD4 concentrations not printed on the sheet
[2] = molecular target: recombinant human PAD4 (human) (UniProt Q9UM07); assay: SPR at pH 6.0; PAD4 concentrations not printed on the sheet
[3] = molecular target: recombinant human PAD4 (human) (UniProt Q9UM07); assay: SPR at pH 6.0

Measured: binding

B1: hz13-5 (antibody, IgG1, V domains shown)
VH: EVLLVQSGAEVKKPGASVKLSCTSSDFNIKDHFIHWVRQAPGKGLEWMGRIDPEDDETKYAPKFQDRVTMTADTSTDTAYMELSSLRSEDTAVFYCAGYGNYEGAMDYWGQGTLVTVSS
VL: DIQMTQSPSSLSASVGDRVTITCRASENVNNYGIGFMNWFQQKPGKAPKLLIYAASRRGSGVPSRFSGSGSGTDFTLTISSLQPEDFATYFCQQSKEVPYTFGQGTKVEIK
notes: also called clone 13-based hz13-5 antibody; parent hz13-5
binds: all assays above
